The other results are listed elsewhere or left out.
Key:
Assay in all cases: log2 fold change, soluble protein after heating vs DMSO (PISA); higher = thermal stabilisation; K562 lysate, 10 uM; active = over 0.2 and 3.5 SD of the protein, either way, in both replicates (recomputed)
[1] = compound: C1=CC=C(C=C1)[C@H](COC2=CC3=C(C=C2)NC(=O)N3)NC(=O)C4=CC=CN(C4=O)CC5=CC(=C(C=C5)F)F
Outline: (§1)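 To prepare the extract, K562 pellets were dounce-homogenised in PBS pH 7.4 with 1 mM MgCl2, giving crude material at 1 mg/mL protein. This was treated with 10 μM compound for 30 min, then heated in aliquots for 3 min over 48°C-58°C before pooling and addition of NP-40 to 0.5% at 4°C. Centrifugation at 21,000xg for 90 min left soluble protein in the supernatant, which TMTpro 16plex LC-MS/MS quantified with equalised channel sums. Results are log-two fold changes in thermal stability compared with solvent controls, from duplicates.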

By UniProt entry, the sequences of proteins in these tests, tags left out. Where a name states a change or a piece, a line headed by the entry shows the natural chain unless it says otherwise.
UniProt Q9UBQ6: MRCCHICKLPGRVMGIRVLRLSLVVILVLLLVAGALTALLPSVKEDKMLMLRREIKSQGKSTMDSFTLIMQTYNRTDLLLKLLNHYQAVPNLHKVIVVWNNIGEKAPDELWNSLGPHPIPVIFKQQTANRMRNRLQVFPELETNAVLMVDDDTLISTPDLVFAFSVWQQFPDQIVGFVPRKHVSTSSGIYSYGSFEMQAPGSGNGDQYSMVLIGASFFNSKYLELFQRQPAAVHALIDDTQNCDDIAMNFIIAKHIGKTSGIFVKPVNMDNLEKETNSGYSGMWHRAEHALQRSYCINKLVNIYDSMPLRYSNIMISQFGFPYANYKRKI
UniProt Q9NQT5, whole entry, looked up: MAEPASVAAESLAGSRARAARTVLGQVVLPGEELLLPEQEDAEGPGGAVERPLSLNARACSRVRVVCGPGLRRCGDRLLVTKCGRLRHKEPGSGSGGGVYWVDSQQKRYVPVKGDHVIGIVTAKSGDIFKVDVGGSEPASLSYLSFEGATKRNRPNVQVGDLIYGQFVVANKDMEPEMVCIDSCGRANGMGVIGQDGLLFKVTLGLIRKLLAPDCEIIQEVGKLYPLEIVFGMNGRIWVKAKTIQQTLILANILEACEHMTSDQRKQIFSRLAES
UniProt Q969W3: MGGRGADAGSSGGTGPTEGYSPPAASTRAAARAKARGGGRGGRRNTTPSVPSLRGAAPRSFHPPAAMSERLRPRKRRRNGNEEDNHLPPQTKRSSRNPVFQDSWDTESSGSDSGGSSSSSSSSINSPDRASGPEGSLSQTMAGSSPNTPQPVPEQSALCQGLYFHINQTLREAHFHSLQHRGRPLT
UniProt Q99504: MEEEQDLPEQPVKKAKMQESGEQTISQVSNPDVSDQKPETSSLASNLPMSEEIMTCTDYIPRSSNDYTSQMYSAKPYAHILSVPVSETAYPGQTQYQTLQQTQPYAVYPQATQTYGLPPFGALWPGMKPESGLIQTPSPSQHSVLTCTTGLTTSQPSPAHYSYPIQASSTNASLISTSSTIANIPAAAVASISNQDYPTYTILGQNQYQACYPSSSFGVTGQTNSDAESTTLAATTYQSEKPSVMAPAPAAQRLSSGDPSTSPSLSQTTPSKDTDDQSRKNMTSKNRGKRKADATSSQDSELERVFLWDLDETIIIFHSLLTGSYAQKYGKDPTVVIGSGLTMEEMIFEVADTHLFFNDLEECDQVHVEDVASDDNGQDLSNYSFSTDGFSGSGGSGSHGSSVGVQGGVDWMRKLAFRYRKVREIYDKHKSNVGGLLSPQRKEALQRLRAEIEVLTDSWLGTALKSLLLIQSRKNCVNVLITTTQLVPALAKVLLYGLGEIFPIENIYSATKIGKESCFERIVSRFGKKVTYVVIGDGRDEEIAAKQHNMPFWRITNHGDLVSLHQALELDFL
UniProt Q15024, whole entry, looked up: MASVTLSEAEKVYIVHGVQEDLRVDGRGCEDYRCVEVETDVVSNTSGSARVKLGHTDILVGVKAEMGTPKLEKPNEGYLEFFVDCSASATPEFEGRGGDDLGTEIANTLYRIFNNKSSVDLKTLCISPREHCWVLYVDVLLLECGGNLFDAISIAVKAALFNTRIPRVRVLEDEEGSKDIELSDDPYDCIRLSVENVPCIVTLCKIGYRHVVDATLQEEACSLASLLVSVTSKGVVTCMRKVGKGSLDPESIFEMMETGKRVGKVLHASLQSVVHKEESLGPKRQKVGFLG
UniProt Q96KR6: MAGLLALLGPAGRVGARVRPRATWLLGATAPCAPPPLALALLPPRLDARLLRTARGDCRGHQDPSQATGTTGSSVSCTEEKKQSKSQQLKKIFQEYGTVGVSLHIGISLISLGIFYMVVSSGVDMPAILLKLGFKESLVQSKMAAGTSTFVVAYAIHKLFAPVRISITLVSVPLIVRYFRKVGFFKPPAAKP
UniProt P12259: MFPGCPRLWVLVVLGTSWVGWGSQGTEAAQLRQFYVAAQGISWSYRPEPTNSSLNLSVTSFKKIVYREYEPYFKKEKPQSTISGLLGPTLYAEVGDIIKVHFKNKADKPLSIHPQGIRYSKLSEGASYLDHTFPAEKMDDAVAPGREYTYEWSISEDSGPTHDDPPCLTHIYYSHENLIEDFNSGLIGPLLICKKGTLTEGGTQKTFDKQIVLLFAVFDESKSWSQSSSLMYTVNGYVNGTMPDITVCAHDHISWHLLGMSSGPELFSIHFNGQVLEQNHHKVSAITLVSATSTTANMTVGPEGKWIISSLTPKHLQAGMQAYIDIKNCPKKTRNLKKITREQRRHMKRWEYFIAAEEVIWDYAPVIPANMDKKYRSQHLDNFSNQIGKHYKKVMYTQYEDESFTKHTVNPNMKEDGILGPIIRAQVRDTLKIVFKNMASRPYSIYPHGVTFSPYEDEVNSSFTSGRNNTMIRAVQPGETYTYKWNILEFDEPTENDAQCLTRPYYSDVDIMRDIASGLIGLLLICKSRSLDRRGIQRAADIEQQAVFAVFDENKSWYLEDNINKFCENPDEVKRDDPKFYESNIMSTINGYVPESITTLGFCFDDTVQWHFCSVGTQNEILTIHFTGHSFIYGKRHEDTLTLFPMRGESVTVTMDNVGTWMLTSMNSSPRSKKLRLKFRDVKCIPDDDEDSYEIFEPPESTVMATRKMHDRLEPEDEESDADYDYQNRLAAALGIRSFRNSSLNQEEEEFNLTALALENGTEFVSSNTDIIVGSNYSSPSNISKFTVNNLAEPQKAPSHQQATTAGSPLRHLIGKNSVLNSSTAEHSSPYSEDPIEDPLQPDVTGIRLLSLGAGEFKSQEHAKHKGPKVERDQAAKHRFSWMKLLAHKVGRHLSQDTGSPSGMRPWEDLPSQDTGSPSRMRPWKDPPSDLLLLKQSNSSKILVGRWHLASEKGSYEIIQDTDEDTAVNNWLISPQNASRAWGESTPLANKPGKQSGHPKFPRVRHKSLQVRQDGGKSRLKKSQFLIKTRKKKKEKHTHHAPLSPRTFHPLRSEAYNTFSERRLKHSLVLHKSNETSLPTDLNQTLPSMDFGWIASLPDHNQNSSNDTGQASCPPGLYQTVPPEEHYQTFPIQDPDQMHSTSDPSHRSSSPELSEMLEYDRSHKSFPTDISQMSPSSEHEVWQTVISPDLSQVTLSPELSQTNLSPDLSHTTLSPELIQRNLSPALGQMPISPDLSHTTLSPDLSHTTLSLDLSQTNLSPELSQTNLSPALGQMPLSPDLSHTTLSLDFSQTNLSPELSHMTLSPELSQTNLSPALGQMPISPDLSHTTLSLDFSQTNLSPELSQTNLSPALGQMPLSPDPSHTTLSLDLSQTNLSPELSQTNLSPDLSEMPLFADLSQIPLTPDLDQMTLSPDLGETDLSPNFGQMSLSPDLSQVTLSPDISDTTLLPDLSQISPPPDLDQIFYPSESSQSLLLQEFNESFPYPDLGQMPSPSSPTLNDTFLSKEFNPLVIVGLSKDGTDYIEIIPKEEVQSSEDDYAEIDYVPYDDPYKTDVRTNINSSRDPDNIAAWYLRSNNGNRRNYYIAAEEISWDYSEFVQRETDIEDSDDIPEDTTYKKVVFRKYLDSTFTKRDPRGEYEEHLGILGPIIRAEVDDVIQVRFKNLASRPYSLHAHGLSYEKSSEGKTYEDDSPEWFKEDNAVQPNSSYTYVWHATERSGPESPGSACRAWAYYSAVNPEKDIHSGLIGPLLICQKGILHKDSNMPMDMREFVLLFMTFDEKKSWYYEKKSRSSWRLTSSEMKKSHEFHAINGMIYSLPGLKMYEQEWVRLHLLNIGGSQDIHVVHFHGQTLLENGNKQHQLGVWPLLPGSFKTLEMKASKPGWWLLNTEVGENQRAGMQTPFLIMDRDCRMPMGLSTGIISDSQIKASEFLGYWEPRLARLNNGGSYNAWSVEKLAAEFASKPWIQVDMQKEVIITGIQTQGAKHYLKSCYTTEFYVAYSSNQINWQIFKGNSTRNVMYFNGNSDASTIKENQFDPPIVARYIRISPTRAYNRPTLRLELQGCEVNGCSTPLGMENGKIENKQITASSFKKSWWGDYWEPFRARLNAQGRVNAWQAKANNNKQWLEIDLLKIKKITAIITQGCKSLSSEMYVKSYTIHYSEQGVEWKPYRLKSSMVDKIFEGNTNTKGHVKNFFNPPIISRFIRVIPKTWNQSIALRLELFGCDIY
UniProt Q92520: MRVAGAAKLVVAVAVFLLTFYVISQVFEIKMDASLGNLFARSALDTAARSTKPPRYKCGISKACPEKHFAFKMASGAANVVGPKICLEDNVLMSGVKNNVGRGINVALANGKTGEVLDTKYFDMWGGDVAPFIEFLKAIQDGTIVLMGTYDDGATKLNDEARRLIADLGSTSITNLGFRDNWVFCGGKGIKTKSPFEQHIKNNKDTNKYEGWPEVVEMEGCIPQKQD
UniProt Q8N128: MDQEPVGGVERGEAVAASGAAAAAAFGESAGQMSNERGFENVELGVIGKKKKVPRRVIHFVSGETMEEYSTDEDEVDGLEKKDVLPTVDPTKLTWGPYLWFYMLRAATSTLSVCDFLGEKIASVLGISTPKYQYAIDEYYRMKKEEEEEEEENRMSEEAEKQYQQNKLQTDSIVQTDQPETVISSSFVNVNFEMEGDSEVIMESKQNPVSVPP

[2] = compound: CC1=C(SC2=C1C(=N[C@H](C3=NN=C(N32)C)CC(=O)N)C4=CC=C(C=C4)Cl)C
Outline: as §1

[3] = compound: CC1=C2C(=CC=C1)N=C(N(C2=O)C3=CC=CC=C3C)CN4C=NC5=C(N=CN=C54)N
Outline: as §1

[4] = compound: Cc1sc2c(c1C)C(c1ccc(Cl)cc1)=N[C@@H](CC(=O)OC(C)(C)C)c1nnc(C)n1-2
Outline: as §1

[5] = compound: c1ccc([C@@H]2C[C@H]2NC2CCNCC2)cc1
Outline: as §1

Measured: log2 fold change

EXTL2 (UniProt Q9UBQ6)
inactive: [1] 0.208 | [2] 0.235 | [3] -0.059 | [4] -0.185 | [5] 0.028

EXOSC3 (UniProt Q9NQT5)
inactive: [1] -0.007 | [2] 0.026 | [3] 0.002 | [4] -0.045 | [5] 0.002

FAM104A isoform 2 (UniProt Q969W3)
inactive: [1] 0.053 | [2] 0.02 | [4] -0.145

EYA3 (UniProt Q99504)
inactive: [1] -0.024 | [2] -0.011 | [3] -0.048 | [4] -0.027 | [5] -0.004

EXOSC7 (UniProt Q15024)
inactive: [1] 0.028 | [2] 0.024 | [3] -0.006 | [4] -0.072 | [5] -0.123

FAM210B (UniProt Q96KR6)
inactive: [1] -0.007 | [2] -0.031 | [3] -0.001 | [4] -0.034 | [5] -0.098

F5 (UniProt P12259)
inactive: [1] -0.041 | [2] 0 | [3] 0.049 | [4] -0.105 | [5] -0.022

FAM3C (UniProt Q92520)
inactive: [1] 0.031 | [2] -0.02 | [3] -0.003 | [4] 0.048 | [5] -0.075

FAM177A1 isoform 2 (UniProt Q8N128)
inactive: [1] -0.093 | [2] 0.05 | [3] -0.053 | [4] 0.002 | [5] 0.078

From the supplement of paper PMC10849652
